Results from the supplement of paper PMC8326762, “A Small Molecule Inhibitor of Pex3–Pex19 Interaction Disrupts Glycosome Biogenesis and Causes Lethality in Trypanosoma brucei” (Frontiers in Cell and Developmental Biology, 2021).
Where a name gives a salt, the structure may show the parent alone. Some of the results follow. The data scatter; read single values as rough.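 Yeast growth was measured as optical density at 600 nm. Two-hybrid strains grew without histidine, so growth depended on Pex3–Pex19 binding. A compound was trypanosome-selective if it reduced growth of the trypanosome-pair strain by over 65% and of the human-pair strain by under 65%.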

These molecules were tested on human PEX3-PEX19 interaction (yeast two-hybrid) (assay: growth inhibition of yeast two-hybrid strain reporting HsPex3-HsPex19 interaction, relative to DMSO; higher = stronger inhibition of human Pex3-Pex19 interaction / growth). Details: 100 µM; 24 h; 3-aminotriazole 10 mM.

Structure (SMILES) | growth inhibition [%]
CCOc1nc2cccc(C(=O)OC(C)OC(=O)OC3CCCCC3)c2n1Cc1ccc(-c2ccccc2-c2nn[nH]n2)cc1 (stereo not given) [Candesartan cilexetil] | 25.1
NCCc1ccc(O)c(O)c1 [Dopamine hydrochloride] | 49.8
NCCS [Cysteamine hydrochloride] | 41.1
O=c1cc(-c2ccc(O)cc2)oc2cc(O)cc(O)c12 [Apigenin] | 28
NC(=O)C(=O)O [Sodium Oxamate] | 53.5
COc1ccccc1N1CCN(CCCNc2cc(=O)n(C)c(=O)n2C)CC1 [Urapidil hydrochloride] | 51.4
Nc1nc(=O)c(Br)c(-c2ccccc2)[nH]1 [Bropirimine] | 42.8
CC1=C(C)C(=O)C(CCCCC#CCCCC#CCO)=C(C)C1=O | 64.3
CCCC(C(=O)OCCN(CC)CC)(c1ccccc1)c1ccccc1 [SKF-525A hydrochloride] | 37.3
CC(C)(Oc1ccc(C2CC2(Cl)Cl)cc1)C(=O)O (stereo not given) [Ciprofibrate] | 37.4
CCCCCN(C)CCC(O)(P(=O)(O)O)P(=O)(O)O [Ibandronate sodium] | 51.5
NC1(C(=O)O)CC1 [1-Aminocyclopropanecarboxylic acid hydrochloride] | 32.6
Cn1cc(C(=O)OCC2CCN(CCNS(C)(=O)=O)CC2)c2ccccc21 | 35.7
COc1ccc(C(=O)NCc2cccnc2)cc1C(=O)NCc1cccnc1 [Picotamide] | 50.9
CC(C(=O)O)c1ccc(CC2CCCC2=O)cc1 (stereo not given) [loxoprofen] | 40.9
CC(=O)OCC(CCn1cnc2cnc(N)nc21)COC(C)=O [Famciclovir] | 11.4
O=c1cc(O)cc(/C=C/c2ccc(O)c(O)c2)o1 [Hispidin] | -0.794
CC(C)C[C@H](NC(=O)[C@H]1O[C@@H]1C(=O)O)C(=O)NCCCCN=C(N)N | 34.6
C[C@]12C[C@H](O)[C@H]3[C@@H](CCC4=CC(=O)CC[C@@]43C)[C@@H]1CC[C@@H]2C(=O)CO [Corticosterone] | 45.7
COc1cc([C@@H]2c3cc4c(cc3[C@@H](O[C@@H]3O[C@@H]5CO[C@@H](C)O[C@H]5[C@H](O)[C@H]3O)[C@H]3COC(=O)[C@H]23)OCO4)cc(OC)c1O [Etoposide] | 32.6
Cc1ccc(S(=O)(=O)/C=C/C#N)cc1 | 88.3
CN(C)CCCN1c2ccccc2CCc2ccccc21 [Imipramine hydrochloride] | 45.3
CC(C)NNC(=O)c1ccncc1 [Iproniazid phosphate] | 10.1
NNCCc1ccccc1 [Phenelzine sulfate] | 44
Cc1ccc(-c2cc(C(F)(F)F)nn2-c2ccc(S(N)(=O)=O)cc2)cc1 [Celecoxib] | -2.46
CO[C@@]1(NC(=O)CSCC#N)C(=O)N2C(C(=O)O)=C(CSc3nnnn3C)CS[C@@H]21 [Cefmetazole sodium] | 45.9

These molecules were tested on T. brucei Pex3-Pex19 interaction (yeast two-hybrid) (assay: growth inhibition of yeast two-hybrid strain reporting TbPex3-TbPex19 interaction, relative to DMSO; higher = stronger inhibition of T. brucei Pex3-Pex19 interaction / growth). Details: 100 µM; 24 h.

Structure (SMILES) | growth inhibition [%]
CN=c1nc(-c2ccccc2)n(-c2ccccc2)s1 | 74.4
CN1CCC(=C2c3ccccc3C=Cc3ccccc32)CC1 [Cyproheptadine hydrochloride] | 50.1
C=C[C@H]1CN2CC[C@H]1C[C@H]2[C@H](O)c1ccnc2ccc(OC)cc12 [Quinine sulfate] | 69.8
O=C1CCC(N2C(=O)c3ccccc3C2=O)C(=O)N1 (racemic) [(±)-Thalidomide] | 69.1
CN1CCc2cccc3c2[C@H]1Cc1ccc(O)c(O)c1-3 [Apomorphine hydrochloride hemihydrate] | 52.6
C1COC(NC(C2CC2)C2CC2)=N1 [Rilmenidine hemifumarate] | 67.1
CN(C)CCCN1c2ccccc2CCc2ccc(Cl)cc21 [Clomipramine hydrochloride] | 42.6
C[C@](N)(Cc1ccc(O)cc1)C(=O)O [L-alpha-Methyl-p-tyrosine] | 61.1
COc1ccccc1N1CCN(CCCCN2C(=O)c3ccccc3C2=O)CC1 [NAN-190 hydrobromide] | 35.3
Fc1ccc(C(c2ccc(F)cc2)N2CCN(C/C=C/c3ccccc3)CC2)cc1 [Flunarizine dihydrochloride] | 71.3
CC1(C)NC(=O)N(c2ccc([N+](=O)[O-])c(C(F)(F)F)c2)C1=O [Nilutamide] | 31.4
Oc1cc2c(cc1O)CN(C(=S)NCCc1ccc(Cl)cc1)CCC2 [Capsazepine] | 51.8
CN1CCC[C@@H]1CCO[C@](C)(c1ccccc1)c1ccc(Cl)cc1 [Clemastine fumarate] | 56.4
CCOc1nc2cccc(C(=O)OC(C)OC(=O)OC3CCCCC3)c2n1Cc1ccc(-c2ccccc2-c2nn[nH]n2)cc1 (stereo not given) [Candesartan cilexetil] | 35.4
NCCc1ccc(O)c(O)c1 [Dopamine hydrochloride] | 65.7
NCCS [Cysteamine hydrochloride] | 72.4
O=c1cc(-c2ccc(O)cc2)oc2cc(O)cc(O)c12 [Apigenin] | 53.1
NC(=O)C(=O)O [Sodium Oxamate] | 60
COc1ccccc1N1CCN(CCCNc2cc(=O)n(C)c(=O)n2C)CC1 [Urapidil hydrochloride] | 66.6
Nc1nc(=O)c(Br)c(-c2ccccc2)[nH]1 [Bropirimine] | 63.4

Structure (SMILES) | growth inhibition [%]
CC1=C(C)C(=O)C(CCCCC#CCCCC#CCO)=C(C)C1=O | 67.6
CCCC(C(=O)OCCN(CC)CC)(c1ccccc1)c1ccccc1 [SKF-525A hydrochloride] | 67.2
CC(C)(Oc1ccc(C2CC2(Cl)Cl)cc1)C(=O)O (stereo not given) [Ciprofibrate] | 40.1
CCCCCN(C)CCC(O)(P(=O)(O)O)P(=O)(O)O [Ibandronate sodium] | 63.8
NC1(C(=O)O)CC1 [1-Aminocyclopropanecarboxylic acid hydrochloride] | 49.7
Cn1cc(C(=O)OCC2CCN(CCNS(C)(=O)=O)CC2)c2ccccc21 | 65.1
COc1ccc(C(=O)NCc2cccnc2)cc1C(=O)NCc1cccnc1 [Picotamide] | 68.6
CC(C(=O)O)c1ccc(CC2CCCC2=O)cc1 (stereo not given) [loxoprofen] | 64.8
CC(=O)OCC(CCn1cnc2cnc(N)nc21)COC(C)=O [Famciclovir] | 48.6
O=c1cc(O)cc(/C=C/c2ccc(O)c(O)c2)o1 [Hispidin] | 34.5
CC(C)C[C@H](NC(=O)[C@H]1O[C@@H]1C(=O)O)C(=O)NCCCCN=C(N)N | 49.2
C[C@]12C[C@H](O)[C@H]3[C@@H](CCC4=CC(=O)CC[C@@]43C)[C@@H]1CC[C@@H]2C(=O)CO [Corticosterone] | 53.3
COc1cc([C@@H]2c3cc4c(cc3[C@@H](O[C@@H]3O[C@@H]5CO[C@@H](C)O[C@H]5[C@H](O)[C@H]3O)[C@H]3COC(=O)[C@H]23)OCO4)cc(OC)c1O [Etoposide] | 55.1
Cc1ccc(S(=O)(=O)/C=C/C#N)cc1 | 84.9
CN(C)CCCN1c2ccccc2CCc2ccccc21 [Imipramine hydrochloride] | 65.1
CC(C)NNC(=O)c1ccncc1 [Iproniazid phosphate] | 39.7
NNCCc1ccccc1 [Phenelzine sulfate] | 55
Cc1ccc(-c2cc(C(F)(F)F)nn2-c2ccc(S(N)(=O)=O)cc2)cc1 [Celecoxib] | 18
CO[C@@]1(NC(=O)CSCC#N)C(=O)N2C(C(=O)O)=C(CSc3nnnn3C)CS[C@@H]21 [Cefmetazole sodium] | 65.1
